The supplement of paper PMC6411743
± gives the standard deviation of the averaged measurements. Some of the results follow.

Amino acid sequences for entries named in this document (tags omitted). A change or cut given only in a name is not applied to a line headed by its entry.
UniProt Q3T8J9: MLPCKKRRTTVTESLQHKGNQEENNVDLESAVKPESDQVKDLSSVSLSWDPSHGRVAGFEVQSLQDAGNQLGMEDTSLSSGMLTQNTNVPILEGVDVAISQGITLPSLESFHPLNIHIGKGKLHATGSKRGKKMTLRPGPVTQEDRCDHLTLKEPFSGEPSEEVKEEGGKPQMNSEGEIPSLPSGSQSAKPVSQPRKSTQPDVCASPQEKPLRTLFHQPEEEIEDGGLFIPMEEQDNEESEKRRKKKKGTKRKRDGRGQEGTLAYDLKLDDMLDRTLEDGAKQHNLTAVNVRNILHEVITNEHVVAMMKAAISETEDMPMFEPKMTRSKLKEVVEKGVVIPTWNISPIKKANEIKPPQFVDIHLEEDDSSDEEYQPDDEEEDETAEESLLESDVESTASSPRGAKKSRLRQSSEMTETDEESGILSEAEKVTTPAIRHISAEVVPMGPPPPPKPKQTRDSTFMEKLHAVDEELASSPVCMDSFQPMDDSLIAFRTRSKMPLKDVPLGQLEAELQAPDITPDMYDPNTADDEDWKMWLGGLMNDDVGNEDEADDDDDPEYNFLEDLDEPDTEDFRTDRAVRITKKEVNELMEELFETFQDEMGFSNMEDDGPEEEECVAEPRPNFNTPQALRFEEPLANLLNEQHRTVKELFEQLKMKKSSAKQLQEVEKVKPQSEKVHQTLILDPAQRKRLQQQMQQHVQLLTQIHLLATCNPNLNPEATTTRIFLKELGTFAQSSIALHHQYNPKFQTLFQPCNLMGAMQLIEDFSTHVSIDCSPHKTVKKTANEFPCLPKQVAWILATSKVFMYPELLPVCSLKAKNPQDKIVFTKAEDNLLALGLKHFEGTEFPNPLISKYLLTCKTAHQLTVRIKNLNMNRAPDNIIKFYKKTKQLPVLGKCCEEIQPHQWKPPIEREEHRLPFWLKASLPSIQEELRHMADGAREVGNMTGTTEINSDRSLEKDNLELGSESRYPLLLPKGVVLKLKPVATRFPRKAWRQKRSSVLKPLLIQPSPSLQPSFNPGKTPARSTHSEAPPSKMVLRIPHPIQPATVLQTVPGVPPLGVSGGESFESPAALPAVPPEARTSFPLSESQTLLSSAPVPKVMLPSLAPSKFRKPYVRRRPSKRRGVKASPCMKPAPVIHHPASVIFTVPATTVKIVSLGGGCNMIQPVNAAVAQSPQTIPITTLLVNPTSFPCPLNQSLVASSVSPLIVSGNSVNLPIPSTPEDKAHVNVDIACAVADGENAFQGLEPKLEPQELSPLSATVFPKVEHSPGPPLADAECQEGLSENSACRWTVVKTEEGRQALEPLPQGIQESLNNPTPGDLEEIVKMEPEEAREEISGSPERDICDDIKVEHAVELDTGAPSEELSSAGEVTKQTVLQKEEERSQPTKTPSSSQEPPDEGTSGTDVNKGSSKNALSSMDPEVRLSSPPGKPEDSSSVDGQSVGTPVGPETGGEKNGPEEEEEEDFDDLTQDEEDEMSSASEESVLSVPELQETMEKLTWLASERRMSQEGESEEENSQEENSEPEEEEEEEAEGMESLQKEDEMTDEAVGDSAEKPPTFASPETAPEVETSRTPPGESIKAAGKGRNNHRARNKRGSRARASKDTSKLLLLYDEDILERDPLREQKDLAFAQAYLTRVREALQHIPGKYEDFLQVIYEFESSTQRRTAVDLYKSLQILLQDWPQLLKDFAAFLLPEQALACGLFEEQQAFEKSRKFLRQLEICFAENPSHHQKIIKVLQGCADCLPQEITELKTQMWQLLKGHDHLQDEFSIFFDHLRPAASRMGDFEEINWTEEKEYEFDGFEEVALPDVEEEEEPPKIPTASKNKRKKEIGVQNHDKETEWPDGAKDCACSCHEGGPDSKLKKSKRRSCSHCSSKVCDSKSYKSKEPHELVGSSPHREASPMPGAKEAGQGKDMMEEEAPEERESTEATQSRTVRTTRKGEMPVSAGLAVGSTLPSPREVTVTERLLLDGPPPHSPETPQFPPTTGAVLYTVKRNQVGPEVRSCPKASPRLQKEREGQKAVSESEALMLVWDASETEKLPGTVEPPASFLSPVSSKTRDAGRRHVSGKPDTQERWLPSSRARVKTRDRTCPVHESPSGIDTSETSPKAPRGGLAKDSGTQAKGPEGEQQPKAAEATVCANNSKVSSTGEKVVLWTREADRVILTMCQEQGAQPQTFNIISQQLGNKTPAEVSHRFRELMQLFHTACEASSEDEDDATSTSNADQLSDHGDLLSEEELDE
UniProt Q15542, whole entry: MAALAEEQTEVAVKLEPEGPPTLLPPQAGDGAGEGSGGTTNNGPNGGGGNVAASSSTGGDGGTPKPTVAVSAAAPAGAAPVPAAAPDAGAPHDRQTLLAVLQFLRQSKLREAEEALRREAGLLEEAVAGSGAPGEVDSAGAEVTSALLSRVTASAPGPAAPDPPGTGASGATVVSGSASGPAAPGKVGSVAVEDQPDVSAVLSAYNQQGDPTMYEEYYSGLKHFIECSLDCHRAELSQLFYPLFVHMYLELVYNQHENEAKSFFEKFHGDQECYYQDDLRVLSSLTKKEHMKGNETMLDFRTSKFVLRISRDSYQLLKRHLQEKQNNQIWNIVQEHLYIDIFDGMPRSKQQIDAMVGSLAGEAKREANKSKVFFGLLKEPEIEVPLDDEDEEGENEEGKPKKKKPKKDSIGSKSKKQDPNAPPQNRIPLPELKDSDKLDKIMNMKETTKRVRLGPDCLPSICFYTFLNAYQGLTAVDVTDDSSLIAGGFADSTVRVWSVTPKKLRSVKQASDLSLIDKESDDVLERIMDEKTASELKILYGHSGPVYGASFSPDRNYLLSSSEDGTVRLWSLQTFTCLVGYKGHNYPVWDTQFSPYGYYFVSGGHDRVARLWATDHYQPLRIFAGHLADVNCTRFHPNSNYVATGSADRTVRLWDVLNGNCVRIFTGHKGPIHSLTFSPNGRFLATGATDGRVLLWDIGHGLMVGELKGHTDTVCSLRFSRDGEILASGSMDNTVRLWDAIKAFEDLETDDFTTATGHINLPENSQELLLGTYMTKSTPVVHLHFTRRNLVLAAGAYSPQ
UniProt Q53FA7: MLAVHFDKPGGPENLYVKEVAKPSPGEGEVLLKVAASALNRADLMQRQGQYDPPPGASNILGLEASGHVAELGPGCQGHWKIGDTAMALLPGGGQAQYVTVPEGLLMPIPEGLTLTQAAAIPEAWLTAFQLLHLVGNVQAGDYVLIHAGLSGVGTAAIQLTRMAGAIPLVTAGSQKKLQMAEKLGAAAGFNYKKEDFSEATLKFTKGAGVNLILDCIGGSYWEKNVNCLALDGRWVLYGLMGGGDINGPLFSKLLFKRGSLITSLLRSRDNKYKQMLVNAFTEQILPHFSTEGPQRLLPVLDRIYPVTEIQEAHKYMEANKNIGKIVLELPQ
UniProt Q15386: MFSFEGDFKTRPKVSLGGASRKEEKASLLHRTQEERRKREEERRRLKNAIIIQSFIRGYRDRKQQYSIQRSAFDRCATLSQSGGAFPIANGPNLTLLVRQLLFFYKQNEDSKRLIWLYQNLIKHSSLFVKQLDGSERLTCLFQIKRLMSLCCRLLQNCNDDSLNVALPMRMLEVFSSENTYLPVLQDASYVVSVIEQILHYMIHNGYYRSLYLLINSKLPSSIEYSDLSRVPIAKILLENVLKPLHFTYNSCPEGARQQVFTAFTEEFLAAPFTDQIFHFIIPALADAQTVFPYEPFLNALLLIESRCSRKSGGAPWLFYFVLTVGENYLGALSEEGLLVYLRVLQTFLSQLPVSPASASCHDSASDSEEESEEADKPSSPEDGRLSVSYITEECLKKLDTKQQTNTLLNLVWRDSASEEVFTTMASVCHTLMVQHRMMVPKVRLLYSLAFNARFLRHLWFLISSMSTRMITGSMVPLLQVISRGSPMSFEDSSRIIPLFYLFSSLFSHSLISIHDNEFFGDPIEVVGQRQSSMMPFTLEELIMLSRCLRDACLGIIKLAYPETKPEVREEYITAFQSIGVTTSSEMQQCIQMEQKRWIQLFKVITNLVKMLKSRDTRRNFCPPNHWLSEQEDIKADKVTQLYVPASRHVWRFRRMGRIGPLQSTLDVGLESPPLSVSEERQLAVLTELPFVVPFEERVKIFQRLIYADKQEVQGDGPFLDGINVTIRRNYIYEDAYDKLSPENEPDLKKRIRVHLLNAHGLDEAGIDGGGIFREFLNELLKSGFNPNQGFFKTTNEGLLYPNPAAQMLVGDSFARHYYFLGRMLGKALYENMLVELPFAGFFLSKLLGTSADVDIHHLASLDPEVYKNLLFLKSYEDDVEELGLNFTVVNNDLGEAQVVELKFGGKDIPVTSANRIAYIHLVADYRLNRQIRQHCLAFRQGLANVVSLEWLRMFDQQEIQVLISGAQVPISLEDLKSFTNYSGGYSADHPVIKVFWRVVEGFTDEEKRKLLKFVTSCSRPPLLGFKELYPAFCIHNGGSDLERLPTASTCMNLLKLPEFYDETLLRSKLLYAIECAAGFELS
UniProt Q14691: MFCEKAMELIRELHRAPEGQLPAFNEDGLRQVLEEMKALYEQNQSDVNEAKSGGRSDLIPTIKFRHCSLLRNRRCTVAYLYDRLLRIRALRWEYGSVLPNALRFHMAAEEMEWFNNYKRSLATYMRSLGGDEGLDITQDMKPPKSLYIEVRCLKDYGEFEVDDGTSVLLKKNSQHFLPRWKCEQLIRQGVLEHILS

Compound: Nc1nc2c(ncn2[C@@H]2O[C@H](COP(=O)(O)OP(=O)(O)OP(=O)(O)O)[C@@H](O)[C@H]2O)c(=O)[nH]1 [guanosine triphosphate]
Experiment: NP40-soluble protein abundance relative to vehicle (solubility fold change) (ratio); higher = more soluble protein in presence of GTP
Description: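 Solubility proteome profiling in Jurkat crude lysate. Lysate was treated with Mg-GTP (0.1-10 mM) for 10 min at room temperature and 3 min at 37 °C, then solubilised with 0.8% NP40 and benzonase, followed by ultracentrifugation. Proteins were quantified by TMT10 LC-MS/MS; the value is the NP40-soluble abundance relative to the NP40-processed vehicle, from 3 independent experiments.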

| Target | NP40-soluble protein abundance (concentration: 0.1mM) | NP40-soluble protein abundance (concentration: 0.5mM) | NP40-soluble protein abundance (concentration: 1mM) | NP40-soluble protein abundance (concentration: 2mM) | NP40-soluble protein abundance (concentration: 4mM) | NP40-soluble protein abundance (concentration: 6mM) | NP40-soluble protein abundance (concentration: 8mM) | NP40-soluble protein abundance (concentration: 10mM) |
| --- | --- | --- | --- | --- | --- | --- | --- | --- |
| UniProt Q3T8J9 and related entries | 0.965 ± 0.035 | 1.06 ± 0.038 | 1.07 ± 0.024 | 1.15 ± 0.071 | 1.13 ± 0.025 | 1.1 ± 0.046 | 1.03 ± 0.055 | 1.11 ± 0.11 |
| UniProt Q15542 and related entries | 1.09 ± 0.092 | 1.12 ± 0.12 | 1.15 ± 0.091 | 1.25 ± 0.18 | 1.28 ± 0.18 | 1.26 ± 0.16 | 1.21 ± 0.15 | 1.31 ± 0.17 |
| TP53I3 (UniProt Q53FA7) | 0.948 ± 0.083 | 0.946 ± 0.1 | 0.954 ± 0.086 | 0.926 ± 0.11 | 0.946 ± 0.077 | 0.91 ± 0.11 | 0.94 ± 0.089 | 0.947 ± 0.077 |
| UBE3C (UniProt Q15386) | 1.04 ± 0.041 | 1.01 ± 0.047 | 0.931 ± 0.066 | 0.94 ± 0.1 | 0.943 ± 0.087 | 0.923 ± 0.072 | 0.854 ± 0.043 | 0.919 ± 0.066 |
| GINS1 (UniProt Q14691) | 1.03 ± 0.032 | 1.01 ± 0.05 | 0.9549 ± 0.0051 | 0.974 ± 0.028 | 0.938 ± 0.068 | 0.94 ± 0.033 | 0.929 ± 0.054 | 0.929 ± 0.07 |
